{
  "source": "patent US7875638B2",
  "about": "“Synthesis of epothilones, intermediates thereto, analogues and uses thereof” (Sloan-Kettering Institute for Cancer Research, priority 2002, dated 2011)",
  "note": "Some entries share one result that the patent states for a list of compounds. For at least one compound, name, drawing or mass did not settle the structure. Some ranges recur; such a range may be that of the whole group of compounds.",
  "data": [
    {"test_system": "CCRF-CEM", "conditions": "read-out: IC50 in vitro (FIG. 94)", "units": {"IC50": "nM"}, "values": [
      {"smiles": "C/C1=C/CC(/C(C)=C/c2csc(C)n2)OC(=O)C[C@H](O)C(C)(C)C(=O)[C@H](C)[C@@H](O)[C@@H](C)CCC1", "note": "(some centres unmarked) [Compound 1, 12,13-desoxyepothilone B, reference compound]", "IC50": "1.3 to 9.3"},
      {"smiles": "C/C(=C\\c1csc(C)n1)[C@@H]1C/C=C(/C(F)(F)F)CCC[C@H](C)[C@H](O)[C@@H](C)C(=O)C(C)(C)[C@@H](O)CC(=O)O1", "note": "[Compound 2, 26-trifluoro-12,13-desoxyepothilone B]", "IC50": "1.3 to 9.3"},
      {"smiles": "C/C(=C\\c1csc(C)n1)[C@@H]1C/C=C(/C(F)(F)F)C/C=C/[C@H](C)[C@H](O)[C@@H](C)C(=O)C(C)(C)[C@@H](O)CC(=O)O1", "note": "[Compound 29, 26-trifluoro-trans-9,10-dehydro-12,13-desoxyepothilone B]", "IC50": "1.3 to 9.3"},
      {"smiles": "C/C(=C\\c1csc(CO)n1)C1C/C=C(/C(F)(F)F)C/C=C/[C@H](C)[C@H](O)[C@@H](C)C(=O)C(C)(C)[C@@H](O)CC(=O)O1", "note": "(some centres unmarked) [Compound 59, 26-trifluoro-9,10-dehydro-dEpoF]", "IC50": "1.3 to 9.3"},
      {"smiles": "C/C1=C/C[C@@H](/C(C)=C/c2csc(CO)n2)OC(=O)C[C@H](O)C(C)(C)C(=O)[C@H](C)[C@@H](O)[C@@H](C)CCC1", "note": "[dEpoF, reference compound]", "IC50": "1.3 to 9.3"}
    ]}
  ]
}
